PubChem BioAssay AID686943 – Drosophila RNAi Screening Center, 2013
In all, the deposit lists about 23,000 reagents; this is an unselected part of those with a known target gene and a result. 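Extra replicates exist only for a retested subset of genes; insulin dose and duration not given; both raised and lowered dpERK matter.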 Further read-outs or replicates are left out here. No sequences are given here. Not stated in the record: the amount of reagent, the time to read-out.

Purpose: 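Fly genes whose loss alters ERK activation after insulin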 (primary screen)
System: Drosophila S2R+ haemocyte-like cells expressing YFP-tagged ERK (Rolled)
Knock-down reagent: long dsRNA against Drosophila genes
Treatment: insulin stimulation versus unstimulated cells; dose and duration not given
Read-out: 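Per-plate z-scores of phospho-ERK immunostaining normalised to YFP-tagged ERK, measured with and without insulin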
Scale: replicate 1, z-score of dpERK with insulin: higher = more active ERK per ERK-YFP after insulin

gene | dsRNA | replicate 1, z-score of dpERK with insulin
Hand | DRSC02656 | 0.17
CG15247 | DRSC17976 | 0.52
CG3632 | DRSC19137 | -0.46
CG3632 | DRSC19871 | -0.42
Jon65Ai | DRSC09731 | 0.21
Zir | DRSC00307 | -0.34
CG4752 | DRSC04486 | 3.41
CG9391 | DRSC11858 | -0.2
bif | DRSC18901 | 0.39
bif | DRSC20313 | -0.13
Ddrgk1 | DRSC15897 | -0.27
CG2765 | DRSC04315 | -0.25
CG18628 | DRSC10328 | 0.47
Ubc7 | DRSC20299 | -0.29
Jhbp1 | DRSC12167 | 0.49
FAM21 | DRSC06623 | 0.13
CG33136 | DRSC05744 | 0.37
CG8160 | DRSC07086 | 0.2
CG8160 | DRSC21434 | 0.18
kni | DRSC11891 | -0.24
mrt | DRSC15484 | -0.29
CG17636 | DRSC20648 | -0.17
CG18131 | DRSC00517 | -2.79
Mo25 | DRSC11224 | 0.56
Pdp1 | DRSC08896 | -4.36
Pdp1 | DRSC08897 | -4.79
Pdp1 | DRSC11251 | -0.78
CG14860 | DRSC14983 | 1.08
Tmx3 | DRSC10471 | 1.33
jus | DRSC14861 | -1.01
jus | DRSC14862 | 2.52
CG7763 | DRSC07043 | -0.34
CG2147 | DRSC18211 | -0.43
CG8187 | DRSC07099 | 1.24
Pih1D1 | DRSC02897 | 0.93
CG10669 | DRSC14261 | 0.28
Rab39 | DRSC17827 | 1.35
CG11583 | DRSC08202 | -0.1
Rpn10 | DRSC11876 | -0.99
